According to article PMC8231504, “A Biophysical Insight of Camptothecin Biodistribution: Towards a Molecular Understanding of Its Pharmacokinetic Issues” (Pharmaceutics, 2021):

Assays:
[1] = Drug location in membrane by steady-state fluorescence quenching/FRET with NBD-PE probe; conditions: NBD-PE labeled cancer membrane model
[2] = Synchrotron SAXS and WAXS of membrane model

Structure (SMILES): CC[C@@]1(O)C(=O)OCc2c1cc1n(c2=O)Cc2cc3ccccc3nc2-1 [CPT, Camptothecin]
- bimolecular quenching constant Kq [1]: 3.53e+09 M⁻¹ s⁻¹
- Stern-Volmer constant KSV ([1]; λexc 360 nm): 27.19 ± 1.41 M⁻¹
- dL (SAXS) of DMPC with CPT ([2]; Lα phase, 44.8 °C, DMPC alone 62.45 ± 0.01): 79.16 ± 3.24 Å
- correlation length (SAXS) of DMPC with CPT ([2]; Lα phase, 44.8 °C, DMPC alone 1549.00 ± 275.08): 664.00 ± 263.68 Å
- dL increase on addition of CPT ([2]; Lβ' phase): 8.8 Å
- ds (d10, WAXS) of DMPC with CPT ([2]; Lβ' phase, 14 °C): 4.18 Å
- dL (SAXS) of DMPC with CPT ([2]; Lβ' phase, 14 °C, DMPC alone 62.90 ± 0.68): 71.69 ± 7.00 Å
- correlation length (SAXS) of DMPC with CPT ([2]; Lβ' phase, 14 °C, DMPC alone 547.00 ± 89.35): 258.00 ± 42.02 Å
- ds (WAXS) of DMPC with CPT ([2]; Pβ phase, 20.6 °C): 4.20 Å
- correlation length (SAXS) of DMPC with CPT ([2]; Pβ phase, 20.6 °C, DMPC alone 855 ± 134.68): 431.00 ± 36.72 Å
